According to article PMC11148184:
No constants are given. Whether binding was seen depends on the method and setting. Binding seen in cells or lysates may run through a third protein. A yes stands for co-enrichment or nearness to the bait. Other partners may have been found. For part of these data: Sequences can lack the tags named with a protein.

Chains of the proteins cited; added tags and fusions are not shown.
UniProt Q6P3S6: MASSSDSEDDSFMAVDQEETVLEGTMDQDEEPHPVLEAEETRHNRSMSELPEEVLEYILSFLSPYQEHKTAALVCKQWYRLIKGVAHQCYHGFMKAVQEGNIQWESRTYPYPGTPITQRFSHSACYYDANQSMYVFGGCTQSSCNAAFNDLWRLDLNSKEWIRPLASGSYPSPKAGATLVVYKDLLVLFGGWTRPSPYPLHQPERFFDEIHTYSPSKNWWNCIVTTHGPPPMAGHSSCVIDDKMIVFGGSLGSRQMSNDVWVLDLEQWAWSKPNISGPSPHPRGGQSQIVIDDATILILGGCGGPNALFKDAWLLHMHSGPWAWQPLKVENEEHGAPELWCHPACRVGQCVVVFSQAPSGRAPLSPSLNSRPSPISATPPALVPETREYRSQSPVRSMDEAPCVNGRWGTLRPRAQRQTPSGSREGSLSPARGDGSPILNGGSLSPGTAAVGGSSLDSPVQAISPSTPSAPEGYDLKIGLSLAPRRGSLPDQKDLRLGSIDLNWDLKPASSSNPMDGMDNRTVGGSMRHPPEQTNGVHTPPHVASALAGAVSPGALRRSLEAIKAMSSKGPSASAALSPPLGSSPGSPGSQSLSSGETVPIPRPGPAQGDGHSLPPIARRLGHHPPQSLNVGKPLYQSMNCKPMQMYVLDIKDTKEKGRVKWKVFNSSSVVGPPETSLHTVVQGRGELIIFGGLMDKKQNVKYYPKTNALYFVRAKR
UniProt Q7Z6Z7: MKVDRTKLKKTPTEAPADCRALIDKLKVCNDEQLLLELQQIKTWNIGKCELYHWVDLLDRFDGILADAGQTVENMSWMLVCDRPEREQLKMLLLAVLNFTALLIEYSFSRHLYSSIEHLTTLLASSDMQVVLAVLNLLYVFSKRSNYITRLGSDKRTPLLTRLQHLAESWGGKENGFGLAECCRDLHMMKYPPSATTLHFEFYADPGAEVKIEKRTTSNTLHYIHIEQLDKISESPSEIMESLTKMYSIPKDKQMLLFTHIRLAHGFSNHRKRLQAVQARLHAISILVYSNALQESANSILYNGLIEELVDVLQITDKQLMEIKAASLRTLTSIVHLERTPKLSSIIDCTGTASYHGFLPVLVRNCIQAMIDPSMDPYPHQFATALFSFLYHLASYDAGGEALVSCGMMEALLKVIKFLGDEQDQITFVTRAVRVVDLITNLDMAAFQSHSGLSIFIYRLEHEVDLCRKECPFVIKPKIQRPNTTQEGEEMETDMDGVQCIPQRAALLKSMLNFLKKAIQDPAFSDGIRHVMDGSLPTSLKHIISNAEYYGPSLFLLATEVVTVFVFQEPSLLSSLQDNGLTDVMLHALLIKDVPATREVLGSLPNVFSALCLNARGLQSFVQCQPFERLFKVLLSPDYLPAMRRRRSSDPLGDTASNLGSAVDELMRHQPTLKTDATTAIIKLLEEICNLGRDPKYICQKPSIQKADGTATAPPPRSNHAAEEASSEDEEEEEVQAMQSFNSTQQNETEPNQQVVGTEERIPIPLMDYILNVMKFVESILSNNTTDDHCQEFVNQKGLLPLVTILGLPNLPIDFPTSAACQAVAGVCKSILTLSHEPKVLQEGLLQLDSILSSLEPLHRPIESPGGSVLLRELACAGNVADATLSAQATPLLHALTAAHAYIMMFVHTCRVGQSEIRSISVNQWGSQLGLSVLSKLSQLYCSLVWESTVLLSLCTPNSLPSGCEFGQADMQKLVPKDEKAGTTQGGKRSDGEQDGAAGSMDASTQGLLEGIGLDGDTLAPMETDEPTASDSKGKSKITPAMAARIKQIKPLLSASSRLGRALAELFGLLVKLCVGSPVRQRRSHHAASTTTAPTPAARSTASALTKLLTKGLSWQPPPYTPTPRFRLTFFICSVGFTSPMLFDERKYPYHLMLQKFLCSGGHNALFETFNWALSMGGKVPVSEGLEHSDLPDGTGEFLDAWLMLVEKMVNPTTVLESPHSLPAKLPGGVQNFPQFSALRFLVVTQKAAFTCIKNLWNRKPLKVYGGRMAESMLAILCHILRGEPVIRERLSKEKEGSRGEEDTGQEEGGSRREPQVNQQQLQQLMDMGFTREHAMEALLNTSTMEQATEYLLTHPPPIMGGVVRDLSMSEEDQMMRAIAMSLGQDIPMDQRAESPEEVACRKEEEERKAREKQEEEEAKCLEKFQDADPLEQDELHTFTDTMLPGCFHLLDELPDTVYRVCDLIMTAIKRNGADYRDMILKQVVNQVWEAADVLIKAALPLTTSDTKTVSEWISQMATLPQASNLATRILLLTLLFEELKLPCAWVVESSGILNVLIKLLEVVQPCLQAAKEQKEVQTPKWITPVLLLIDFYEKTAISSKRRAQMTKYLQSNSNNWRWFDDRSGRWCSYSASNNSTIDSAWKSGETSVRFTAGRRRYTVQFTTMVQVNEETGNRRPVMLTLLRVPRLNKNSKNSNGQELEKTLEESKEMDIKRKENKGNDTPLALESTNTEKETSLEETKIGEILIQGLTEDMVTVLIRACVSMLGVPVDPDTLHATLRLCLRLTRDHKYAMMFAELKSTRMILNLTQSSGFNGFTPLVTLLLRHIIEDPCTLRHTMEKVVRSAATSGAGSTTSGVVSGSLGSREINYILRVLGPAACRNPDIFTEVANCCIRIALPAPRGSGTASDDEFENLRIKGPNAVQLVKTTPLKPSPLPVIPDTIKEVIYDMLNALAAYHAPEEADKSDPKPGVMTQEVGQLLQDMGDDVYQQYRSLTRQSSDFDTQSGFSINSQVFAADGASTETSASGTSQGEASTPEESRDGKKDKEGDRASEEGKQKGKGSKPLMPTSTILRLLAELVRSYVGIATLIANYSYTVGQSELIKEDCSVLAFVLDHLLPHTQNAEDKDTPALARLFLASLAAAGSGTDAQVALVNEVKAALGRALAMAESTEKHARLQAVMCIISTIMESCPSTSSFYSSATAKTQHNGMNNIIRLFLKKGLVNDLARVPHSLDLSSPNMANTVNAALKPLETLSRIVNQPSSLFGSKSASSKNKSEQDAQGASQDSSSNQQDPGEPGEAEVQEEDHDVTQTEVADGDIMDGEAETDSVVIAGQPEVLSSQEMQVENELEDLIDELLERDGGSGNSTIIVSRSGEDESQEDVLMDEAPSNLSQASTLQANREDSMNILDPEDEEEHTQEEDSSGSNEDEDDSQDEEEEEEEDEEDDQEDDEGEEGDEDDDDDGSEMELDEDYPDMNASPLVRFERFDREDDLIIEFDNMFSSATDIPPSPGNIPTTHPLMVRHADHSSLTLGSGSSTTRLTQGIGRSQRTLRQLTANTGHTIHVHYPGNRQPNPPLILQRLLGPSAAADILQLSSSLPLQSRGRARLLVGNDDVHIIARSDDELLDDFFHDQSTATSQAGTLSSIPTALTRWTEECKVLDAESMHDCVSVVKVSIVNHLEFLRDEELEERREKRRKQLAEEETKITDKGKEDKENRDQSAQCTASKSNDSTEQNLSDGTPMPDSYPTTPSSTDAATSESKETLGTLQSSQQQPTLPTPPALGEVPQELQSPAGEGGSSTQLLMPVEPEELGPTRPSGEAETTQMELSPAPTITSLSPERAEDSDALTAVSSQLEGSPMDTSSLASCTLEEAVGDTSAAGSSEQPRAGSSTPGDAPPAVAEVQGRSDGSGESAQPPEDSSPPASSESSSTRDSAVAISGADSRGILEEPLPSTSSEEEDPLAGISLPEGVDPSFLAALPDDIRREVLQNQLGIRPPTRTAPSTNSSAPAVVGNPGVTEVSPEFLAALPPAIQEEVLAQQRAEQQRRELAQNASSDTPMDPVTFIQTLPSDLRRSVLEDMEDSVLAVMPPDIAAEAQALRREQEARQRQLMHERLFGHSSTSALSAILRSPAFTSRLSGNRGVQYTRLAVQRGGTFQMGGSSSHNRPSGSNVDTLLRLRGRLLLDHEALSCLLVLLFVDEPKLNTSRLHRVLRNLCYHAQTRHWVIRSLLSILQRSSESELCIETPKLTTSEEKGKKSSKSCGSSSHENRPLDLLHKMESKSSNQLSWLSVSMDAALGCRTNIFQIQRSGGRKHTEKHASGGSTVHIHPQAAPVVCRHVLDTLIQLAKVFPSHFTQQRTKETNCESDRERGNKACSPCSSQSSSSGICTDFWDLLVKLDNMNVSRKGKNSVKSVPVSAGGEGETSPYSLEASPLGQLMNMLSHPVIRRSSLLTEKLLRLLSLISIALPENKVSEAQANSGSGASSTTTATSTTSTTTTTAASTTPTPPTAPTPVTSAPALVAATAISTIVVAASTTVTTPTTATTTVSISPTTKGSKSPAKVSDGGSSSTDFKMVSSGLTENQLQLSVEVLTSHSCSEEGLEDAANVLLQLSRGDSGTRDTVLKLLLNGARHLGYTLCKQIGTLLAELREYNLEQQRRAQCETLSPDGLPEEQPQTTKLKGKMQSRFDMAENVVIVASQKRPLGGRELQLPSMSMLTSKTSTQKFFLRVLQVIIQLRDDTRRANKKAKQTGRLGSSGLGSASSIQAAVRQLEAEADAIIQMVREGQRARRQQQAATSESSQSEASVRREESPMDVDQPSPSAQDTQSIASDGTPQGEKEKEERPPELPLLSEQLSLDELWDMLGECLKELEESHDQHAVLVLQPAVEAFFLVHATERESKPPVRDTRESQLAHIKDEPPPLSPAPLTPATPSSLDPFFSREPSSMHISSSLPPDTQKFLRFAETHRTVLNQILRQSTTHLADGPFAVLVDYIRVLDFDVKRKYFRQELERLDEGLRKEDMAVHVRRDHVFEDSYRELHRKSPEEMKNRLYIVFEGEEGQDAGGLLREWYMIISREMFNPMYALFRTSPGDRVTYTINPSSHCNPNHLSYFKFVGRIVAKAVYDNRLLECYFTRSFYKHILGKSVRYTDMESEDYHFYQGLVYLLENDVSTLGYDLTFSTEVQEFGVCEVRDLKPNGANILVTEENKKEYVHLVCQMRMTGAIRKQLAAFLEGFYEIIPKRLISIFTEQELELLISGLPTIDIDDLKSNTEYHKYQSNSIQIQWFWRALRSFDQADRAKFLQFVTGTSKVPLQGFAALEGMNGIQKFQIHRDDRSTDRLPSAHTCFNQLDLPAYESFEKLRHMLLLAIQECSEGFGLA

Legend:
[1] = molecular target: BirA*-tagged FBXO42 (F-Box Protein 42), full-length human (human) (UniProt Q6P3S6); experiment: proximity labelling; BioID: BirA*-tagged bait induced in HEK293 Flp-In T-REx cells, 50 uM biotin for 24 h, with or without 5 uM MG132; streptavidin-Sepharose purification and mass spectrometry
[2] = molecular target: T1, FLAG-tagged C16orf72/HAPSTR1, full-length human (human) (UniProt Q14CZ0); experiment: affinity purification with mass spectrometry; FLAG-tagged bait in HEK293 Flp-In T-REx and U2OS Flp-In T-REx cells; anti-FLAG M2 magnetic beads, on-bead digest, SAINT filtering, biological triplicates
T1 sequence: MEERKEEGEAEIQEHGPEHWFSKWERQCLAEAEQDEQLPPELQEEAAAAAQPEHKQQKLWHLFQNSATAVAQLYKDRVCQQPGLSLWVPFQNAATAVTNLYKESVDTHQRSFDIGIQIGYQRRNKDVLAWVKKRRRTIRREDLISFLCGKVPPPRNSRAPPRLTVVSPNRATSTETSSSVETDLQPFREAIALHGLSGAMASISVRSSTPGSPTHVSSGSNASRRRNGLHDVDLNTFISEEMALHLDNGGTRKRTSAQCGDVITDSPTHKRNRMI

| binding [1] | binding [2] | Substance |
| --- | --- | --- |
| binds |  | BRCA2 (from UniProt P51587 1-3418) |
| binds | binds | HUWE1 (from UniProt Q7Z6Z7 1-4374) |
